This passage reports binding results from PMC4638040.

Sequences of proteins named here, by UniProt entry; tags and fusion partners are left off. A change or cut given only in a name is not applied to a line headed by its entry.
UniProt Q9UNE7: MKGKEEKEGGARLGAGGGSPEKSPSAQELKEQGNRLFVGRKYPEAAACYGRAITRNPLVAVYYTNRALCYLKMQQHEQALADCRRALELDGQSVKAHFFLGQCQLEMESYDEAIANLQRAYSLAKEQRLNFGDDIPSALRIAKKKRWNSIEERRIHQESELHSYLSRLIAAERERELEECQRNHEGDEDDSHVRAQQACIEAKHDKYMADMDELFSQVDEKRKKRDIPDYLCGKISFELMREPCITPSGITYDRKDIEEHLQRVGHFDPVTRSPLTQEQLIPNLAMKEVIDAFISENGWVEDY

No constants are given. Whether binding was seen depends on the method and setting. Some binding calls cover weakened binding; strength is not graded here. For part of these data: Where a sequence is shown, tags or fusion partners need not be part of it.

Assay [1] deals with T1, GST-IRF-1 (pDEST-15-codon optimized IRF-1) (UniProt P10914).
T1 sequence: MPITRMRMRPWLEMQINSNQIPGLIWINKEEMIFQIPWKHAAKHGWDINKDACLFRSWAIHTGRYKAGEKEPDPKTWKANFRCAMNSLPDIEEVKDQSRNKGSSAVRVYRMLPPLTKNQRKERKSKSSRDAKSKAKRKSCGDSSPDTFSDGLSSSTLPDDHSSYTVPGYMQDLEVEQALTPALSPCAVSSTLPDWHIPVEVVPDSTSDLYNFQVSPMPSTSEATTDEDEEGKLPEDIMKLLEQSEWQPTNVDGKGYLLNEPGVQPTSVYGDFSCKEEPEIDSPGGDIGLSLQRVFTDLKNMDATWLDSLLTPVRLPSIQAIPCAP
In words: ELISA; GST-IRF-1 (100 ng) immobilised on microtitre wells; His-CHIP in the mobile phase (fixed amount with DMSO or a titration of Hsp70 peptide, or a titration of His-CHIP wt or K30A); 25 mM HEPES pH 7.5, 50 mM KCl, 10 mM MgCl2, 5% glycerol, 0.1% Tween-20, 1 h at room temperature; detected with an anti-CHIP antibody; both purified. For orientation: An ELISA detects its analyte on a solid surface through an enzyme-linked reagent.

Assay [2] has as its target T2, Hsp70 C-terminal peptide GPTIEEVD (residues 634-641), biotin-SGSG at the N terminus.
T2 sequence (peptide, biotin at the N terminus): SGSGGPTIEEVD
In words: AlphaScreen or HTRF; biotin-tagged Hsp70 peptide (6.25 ng) on streptavidin donor beads; titration (0-100 ng) of His-CHIP wt or K30A on protein-A acceptor beads by anti-His mAb; 1 h at room temperature; both purified. On the technique in general: Alpha assays give light when donor and acceptor beads are brought close together.

For “Carboxy-terminus of Hsc70-interacting protein (CHIP), His-tagged, K30A mutant (from UniProt Q9UNE7 1-303) (enzyme)”, in assay [1], the binding entry is “binds”. With “Carboxy-terminus of Hsc70-interacting protein (CHIP), His-tagged, wild type (from UniProt Q9UNE7 1-303) (enzyme)”, the binding entry in assay [2] and in assay [1] was “binds” throughout.
